Experimental data published in patent US11661583B2, “Drug discovery platform for Duchenne cardiomyopathy” (University of Washington, priority 2015, dated 2023).
Where a name gives a salt, the structure may show the parent alone.

Test system: dystrophin deficient cardiomyocytes
Experiment: High-throughput hypotonic stress cell viability (intracellular ATP) screen
Conditions: 384-well; 18 hours compound incubation, then 30 minutes at 12.5% normal osmolarity; CELLTITER-GLO; vs average of DMSO control wells; tested at 10^-8 to 10^-5 M, concentration not given

| Structure (SMILES) | Average of % viability [%] |
| --- | --- |
| CCCCc1oc2ccccc2c1C(=O)c1cc(I)c(OCCN(CC)CC)c(I)c1 [AMIODARONE HYDROCHLORIDE] | 168.14 ± 8.45 |
| CC(C)NCC(O)COc1ccc(CC(N)=O)cc1 (centres unmarked) [ATENOLOL] | 171.27 ± 1.77 |
